Results from PMC10287905.

By UniProt entry, the sequences of proteins in these tests, tags left out.
UniProt P27694, whole entry: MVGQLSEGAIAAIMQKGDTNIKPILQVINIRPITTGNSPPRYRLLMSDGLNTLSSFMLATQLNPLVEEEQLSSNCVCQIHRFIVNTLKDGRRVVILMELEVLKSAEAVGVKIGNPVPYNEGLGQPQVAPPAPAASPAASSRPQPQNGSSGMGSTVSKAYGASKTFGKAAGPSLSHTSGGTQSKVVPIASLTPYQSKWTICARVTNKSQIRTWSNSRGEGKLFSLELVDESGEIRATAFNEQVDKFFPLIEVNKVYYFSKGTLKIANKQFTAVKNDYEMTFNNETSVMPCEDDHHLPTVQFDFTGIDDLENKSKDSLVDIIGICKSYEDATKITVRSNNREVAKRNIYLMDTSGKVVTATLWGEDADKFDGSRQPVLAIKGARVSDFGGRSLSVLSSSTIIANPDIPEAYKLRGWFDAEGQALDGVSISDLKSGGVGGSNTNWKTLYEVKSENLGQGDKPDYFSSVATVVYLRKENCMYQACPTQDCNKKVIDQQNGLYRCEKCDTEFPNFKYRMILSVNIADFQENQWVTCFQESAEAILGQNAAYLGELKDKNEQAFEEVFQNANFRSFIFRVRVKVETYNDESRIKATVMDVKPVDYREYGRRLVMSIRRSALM
UniProt P27694, whole entry K259Q/K458Q/K489Q: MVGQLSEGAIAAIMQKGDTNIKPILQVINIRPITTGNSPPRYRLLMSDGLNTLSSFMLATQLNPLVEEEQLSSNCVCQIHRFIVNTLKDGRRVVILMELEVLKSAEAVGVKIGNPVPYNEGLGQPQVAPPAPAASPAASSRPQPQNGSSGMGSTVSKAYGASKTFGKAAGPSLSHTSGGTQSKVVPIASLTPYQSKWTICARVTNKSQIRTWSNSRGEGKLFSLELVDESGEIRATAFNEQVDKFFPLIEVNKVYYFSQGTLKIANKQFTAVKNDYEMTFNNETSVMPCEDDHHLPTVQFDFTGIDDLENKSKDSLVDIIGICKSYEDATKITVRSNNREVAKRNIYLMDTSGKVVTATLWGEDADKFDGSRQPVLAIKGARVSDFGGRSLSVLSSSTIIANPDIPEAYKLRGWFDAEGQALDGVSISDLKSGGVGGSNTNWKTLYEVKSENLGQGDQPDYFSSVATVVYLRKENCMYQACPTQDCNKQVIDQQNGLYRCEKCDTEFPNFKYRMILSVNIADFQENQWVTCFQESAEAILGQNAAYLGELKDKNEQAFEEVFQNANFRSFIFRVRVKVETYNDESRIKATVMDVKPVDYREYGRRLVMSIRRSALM
UniProt P27694, whole entry K259R/K458R/K489R: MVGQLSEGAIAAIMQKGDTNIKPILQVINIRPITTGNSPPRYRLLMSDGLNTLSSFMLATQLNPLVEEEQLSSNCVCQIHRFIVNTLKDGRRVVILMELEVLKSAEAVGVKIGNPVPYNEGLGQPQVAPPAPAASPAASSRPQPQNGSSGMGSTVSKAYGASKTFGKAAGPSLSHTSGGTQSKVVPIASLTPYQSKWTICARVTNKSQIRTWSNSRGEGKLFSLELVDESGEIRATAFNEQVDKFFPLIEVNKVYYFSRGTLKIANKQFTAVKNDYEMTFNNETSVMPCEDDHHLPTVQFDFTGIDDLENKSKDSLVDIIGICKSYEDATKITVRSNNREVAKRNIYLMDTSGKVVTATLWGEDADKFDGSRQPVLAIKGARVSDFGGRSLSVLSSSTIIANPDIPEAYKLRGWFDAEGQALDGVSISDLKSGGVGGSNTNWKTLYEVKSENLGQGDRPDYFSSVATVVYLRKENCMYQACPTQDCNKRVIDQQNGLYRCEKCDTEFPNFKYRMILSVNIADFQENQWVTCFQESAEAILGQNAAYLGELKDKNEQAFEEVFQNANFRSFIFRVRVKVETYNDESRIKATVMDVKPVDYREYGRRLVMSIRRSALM
UniProt P22336, whole entry K259Q/K427Q/K463Q/K494Q: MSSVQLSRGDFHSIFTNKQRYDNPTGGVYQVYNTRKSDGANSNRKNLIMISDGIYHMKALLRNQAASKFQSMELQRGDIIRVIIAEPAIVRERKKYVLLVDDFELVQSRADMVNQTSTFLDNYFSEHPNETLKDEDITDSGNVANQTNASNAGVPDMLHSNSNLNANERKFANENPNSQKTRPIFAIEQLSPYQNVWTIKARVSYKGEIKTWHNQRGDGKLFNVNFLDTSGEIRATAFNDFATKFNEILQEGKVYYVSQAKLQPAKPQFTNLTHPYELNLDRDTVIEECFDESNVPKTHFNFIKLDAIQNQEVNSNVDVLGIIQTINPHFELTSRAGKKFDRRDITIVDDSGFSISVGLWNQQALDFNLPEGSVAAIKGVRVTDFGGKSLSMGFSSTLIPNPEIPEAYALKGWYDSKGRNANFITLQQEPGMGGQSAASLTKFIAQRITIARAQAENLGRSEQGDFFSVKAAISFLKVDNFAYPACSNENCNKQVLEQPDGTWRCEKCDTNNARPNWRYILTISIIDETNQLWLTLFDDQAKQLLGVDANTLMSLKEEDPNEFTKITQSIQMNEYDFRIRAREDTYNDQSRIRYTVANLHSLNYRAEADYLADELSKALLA
UniProt P22336, whole entry K259R/K427R/K463R/K494R: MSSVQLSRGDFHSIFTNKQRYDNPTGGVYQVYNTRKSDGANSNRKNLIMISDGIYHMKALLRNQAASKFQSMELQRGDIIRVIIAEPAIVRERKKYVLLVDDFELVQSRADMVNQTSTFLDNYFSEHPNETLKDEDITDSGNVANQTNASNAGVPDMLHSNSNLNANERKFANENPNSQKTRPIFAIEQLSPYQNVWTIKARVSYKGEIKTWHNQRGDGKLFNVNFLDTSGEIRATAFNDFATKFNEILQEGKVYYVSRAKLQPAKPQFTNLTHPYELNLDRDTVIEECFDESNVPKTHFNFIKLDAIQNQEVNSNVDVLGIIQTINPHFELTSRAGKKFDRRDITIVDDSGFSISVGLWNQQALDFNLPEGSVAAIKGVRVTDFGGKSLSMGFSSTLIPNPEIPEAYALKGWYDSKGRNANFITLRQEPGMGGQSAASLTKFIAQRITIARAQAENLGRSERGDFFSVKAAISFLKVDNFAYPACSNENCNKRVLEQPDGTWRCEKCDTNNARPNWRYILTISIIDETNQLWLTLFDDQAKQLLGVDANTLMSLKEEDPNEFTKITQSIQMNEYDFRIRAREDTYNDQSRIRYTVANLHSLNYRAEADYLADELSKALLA

Tests used:
Assay in all cases: pull-down
[1] = target: RPA1 WT (human) (UniProt P27694); conditions: human lysate pull-down: 20 mM Tris-HCl pH 8.0, 100 mM NaCl, 1 mM EDTA, 0.5% NP-40, room temp, 30 min; protein in a lysate after overexpression; protein details: FLAG; label: 5'-biotin; single-stranded DNA
[2] = target: RPA1-3KQ K259Q,K458Q,K489Q (human) (UniProt P27694); conditions: lower and higher concentrations; human lysate pull-down: 20 mM Tris-HCl pH 8.0, 100 mM NaCl, 1 mM EDTA, 0.5% NP-40, room temp, 30 min; protein in a lysate after overexpression; protein details: FLAG; label: 5'-biotin; single-stranded DNA
[3] = target: RPA1-3KR K259R,K458R,K489R (human) (UniProt P27694); conditions: higher concentration only, no defect at lower; human lysate pull-down: 20 mM Tris-HCl pH 8.0, 100 mM NaCl, 1 mM EDTA, 0.5% NP-40, room temp, 30 min; protein in a lysate after overexpression; protein details: FLAG; label: 5'-biotin; single-stranded DNA
[4] = target: Rfa1 WT (endogenous RPA in lysate) (UniProt P22336); conditions: human lysate pull-down: 20 mM Tris-HCl pH 8.0, 100 mM NaCl, 1 mM EDTA, 0.5% NP-40, room temp, 30 min; protein in an extract; label: 5'-biotin; single-stranded DNA
[5] = target: Rfa1-4KQ (RPA in lysate) K259Q,K427Q,K463Q,K494Q (UniProt P22336); conditions: more severe than 4KR; human lysate pull-down: 20 mM Tris-HCl pH 8.0, 100 mM NaCl, 1 mM EDTA, 0.5% NP-40, room temp, 30 min; protein in an extract; label: 5'-biotin; single-stranded DNA
[6] = target: Rfa1-4KR (RPA in lysate) K259R,K427R,K463R,K494R (UniProt P22336); conditions: human lysate pull-down: 20 mM Tris-HCl pH 8.0, 100 mM NaCl, 1 mM EDTA, 0.5% NP-40, room temp, 30 min; protein in an extract; label: 5'-biotin; single-stranded DNA

CGATAAGCTTGATATCGAATTCCTGCAGCC [biotin-ssDNA 30 nt]
binding result [1]: binds
binding result [2]: binds more weakly
binding result [3]: binds more weakly
binding result [4]: binds
binding result [5]: binds more weakly
binding result [6]: binds more weakly

For at least one entry, the source does not settle the construct or the ends of the probe. At least one result comes from cells or an extract, where the contact may be indirect. For part of these data: The comparison behind a weaker result is the experiment's own reference, which may not be listed here.
